The supplement of paper PMC12823440, “Inhibitors supercharge kinase turnover through native proteolytic circuits” (Nature, 2025)
Structures can show the parent of a compound that is named as a salt. The list shows a part of the results. The calls rarely recur for the same compound in another form.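 Kinases were expressed as nanoluciferase fusions in K562 cells and luminescence was read every 4 h between 2 and 18 h as percent of control, DMSO set to 100% and a positive control to 0%. A time point counts as decreased when the signal drops significantly (2 sigma). The hit call is the authors' own, does not follow from the count of time points alone, and its rule is not shown.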

Chains of the proteins cited; added tags and fusions are not shown. Lines headed by an entry give the natural chain unless they say otherwise; changes in a name come on top.
UniProt Q9UQM7, whole entry: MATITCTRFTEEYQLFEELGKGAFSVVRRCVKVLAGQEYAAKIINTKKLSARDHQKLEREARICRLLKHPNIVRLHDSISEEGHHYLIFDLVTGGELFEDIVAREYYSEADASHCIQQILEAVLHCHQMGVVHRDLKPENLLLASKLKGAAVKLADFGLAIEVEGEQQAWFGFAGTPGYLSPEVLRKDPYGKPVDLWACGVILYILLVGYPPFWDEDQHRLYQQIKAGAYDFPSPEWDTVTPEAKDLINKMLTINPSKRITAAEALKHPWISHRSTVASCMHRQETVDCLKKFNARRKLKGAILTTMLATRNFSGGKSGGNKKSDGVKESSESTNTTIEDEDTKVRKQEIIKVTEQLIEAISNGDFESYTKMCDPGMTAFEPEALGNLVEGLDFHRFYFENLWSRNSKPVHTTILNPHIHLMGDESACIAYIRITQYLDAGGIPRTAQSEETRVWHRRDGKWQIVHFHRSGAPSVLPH
UniProt Q13555: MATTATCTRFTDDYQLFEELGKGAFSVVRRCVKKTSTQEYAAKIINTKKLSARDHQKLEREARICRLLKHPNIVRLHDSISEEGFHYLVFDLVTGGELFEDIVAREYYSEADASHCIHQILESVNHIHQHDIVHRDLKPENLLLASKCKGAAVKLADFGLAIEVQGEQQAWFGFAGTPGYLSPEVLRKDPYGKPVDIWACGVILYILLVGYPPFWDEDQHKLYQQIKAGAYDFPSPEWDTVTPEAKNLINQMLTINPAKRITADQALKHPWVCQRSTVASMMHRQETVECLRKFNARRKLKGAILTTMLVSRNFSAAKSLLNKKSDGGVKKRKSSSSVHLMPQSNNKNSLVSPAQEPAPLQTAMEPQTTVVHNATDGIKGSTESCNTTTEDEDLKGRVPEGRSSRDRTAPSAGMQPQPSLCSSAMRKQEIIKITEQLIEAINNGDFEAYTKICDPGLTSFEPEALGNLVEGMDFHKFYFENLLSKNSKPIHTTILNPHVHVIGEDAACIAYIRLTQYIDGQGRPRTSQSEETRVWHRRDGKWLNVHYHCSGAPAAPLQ
UniProt Q15131: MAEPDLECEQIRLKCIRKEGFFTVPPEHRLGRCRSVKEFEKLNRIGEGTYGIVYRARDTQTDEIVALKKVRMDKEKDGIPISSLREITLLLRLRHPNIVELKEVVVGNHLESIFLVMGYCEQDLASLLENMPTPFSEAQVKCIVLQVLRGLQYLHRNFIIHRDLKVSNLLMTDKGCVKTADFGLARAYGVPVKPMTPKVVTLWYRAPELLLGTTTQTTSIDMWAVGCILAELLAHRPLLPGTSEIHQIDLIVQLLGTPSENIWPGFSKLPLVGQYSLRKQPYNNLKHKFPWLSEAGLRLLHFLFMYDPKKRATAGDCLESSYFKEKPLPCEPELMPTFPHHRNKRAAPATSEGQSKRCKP
UniProt Q00526: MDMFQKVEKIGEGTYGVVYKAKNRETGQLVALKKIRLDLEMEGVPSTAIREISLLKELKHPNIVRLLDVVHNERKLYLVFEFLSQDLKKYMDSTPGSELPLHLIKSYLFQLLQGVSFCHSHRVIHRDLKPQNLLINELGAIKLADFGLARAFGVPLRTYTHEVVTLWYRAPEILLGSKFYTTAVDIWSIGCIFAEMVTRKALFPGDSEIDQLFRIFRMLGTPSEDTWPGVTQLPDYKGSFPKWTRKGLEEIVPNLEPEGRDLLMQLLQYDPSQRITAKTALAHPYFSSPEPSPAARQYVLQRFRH
UniProt Q00534, whole entry: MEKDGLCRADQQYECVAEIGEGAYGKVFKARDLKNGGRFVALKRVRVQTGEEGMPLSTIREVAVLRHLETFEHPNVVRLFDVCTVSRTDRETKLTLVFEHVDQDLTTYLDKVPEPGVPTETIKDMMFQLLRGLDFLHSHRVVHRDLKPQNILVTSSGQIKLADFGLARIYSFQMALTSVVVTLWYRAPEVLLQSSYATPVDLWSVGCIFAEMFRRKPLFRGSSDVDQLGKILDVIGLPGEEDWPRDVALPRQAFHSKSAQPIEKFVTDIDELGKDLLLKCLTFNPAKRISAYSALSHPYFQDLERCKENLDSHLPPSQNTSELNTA
UniProt P07333, whole entry: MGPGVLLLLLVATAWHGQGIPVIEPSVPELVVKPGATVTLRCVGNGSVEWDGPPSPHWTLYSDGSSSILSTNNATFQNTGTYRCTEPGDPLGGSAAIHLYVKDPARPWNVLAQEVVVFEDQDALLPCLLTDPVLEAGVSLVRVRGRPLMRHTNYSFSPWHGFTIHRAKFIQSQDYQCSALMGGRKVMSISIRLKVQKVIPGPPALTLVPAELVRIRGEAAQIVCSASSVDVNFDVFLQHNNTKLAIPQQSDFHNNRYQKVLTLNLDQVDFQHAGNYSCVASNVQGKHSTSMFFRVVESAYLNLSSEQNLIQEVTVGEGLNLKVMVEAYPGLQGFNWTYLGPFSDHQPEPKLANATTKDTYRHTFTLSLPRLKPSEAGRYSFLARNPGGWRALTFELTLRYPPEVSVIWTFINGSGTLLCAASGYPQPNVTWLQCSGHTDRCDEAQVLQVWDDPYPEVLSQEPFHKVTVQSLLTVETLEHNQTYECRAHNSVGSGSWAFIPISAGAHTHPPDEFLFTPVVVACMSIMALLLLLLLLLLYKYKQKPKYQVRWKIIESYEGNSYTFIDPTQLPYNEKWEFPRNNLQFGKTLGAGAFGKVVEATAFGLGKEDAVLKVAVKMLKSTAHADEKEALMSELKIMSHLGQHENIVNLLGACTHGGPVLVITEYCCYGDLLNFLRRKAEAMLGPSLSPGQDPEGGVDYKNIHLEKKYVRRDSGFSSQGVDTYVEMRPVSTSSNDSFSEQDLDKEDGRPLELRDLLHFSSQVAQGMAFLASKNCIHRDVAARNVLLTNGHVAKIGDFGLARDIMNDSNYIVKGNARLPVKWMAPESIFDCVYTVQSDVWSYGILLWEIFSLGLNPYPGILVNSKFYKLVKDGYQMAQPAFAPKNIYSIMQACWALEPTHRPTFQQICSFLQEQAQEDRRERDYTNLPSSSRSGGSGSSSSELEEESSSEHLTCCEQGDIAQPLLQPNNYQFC
UniProt P41240: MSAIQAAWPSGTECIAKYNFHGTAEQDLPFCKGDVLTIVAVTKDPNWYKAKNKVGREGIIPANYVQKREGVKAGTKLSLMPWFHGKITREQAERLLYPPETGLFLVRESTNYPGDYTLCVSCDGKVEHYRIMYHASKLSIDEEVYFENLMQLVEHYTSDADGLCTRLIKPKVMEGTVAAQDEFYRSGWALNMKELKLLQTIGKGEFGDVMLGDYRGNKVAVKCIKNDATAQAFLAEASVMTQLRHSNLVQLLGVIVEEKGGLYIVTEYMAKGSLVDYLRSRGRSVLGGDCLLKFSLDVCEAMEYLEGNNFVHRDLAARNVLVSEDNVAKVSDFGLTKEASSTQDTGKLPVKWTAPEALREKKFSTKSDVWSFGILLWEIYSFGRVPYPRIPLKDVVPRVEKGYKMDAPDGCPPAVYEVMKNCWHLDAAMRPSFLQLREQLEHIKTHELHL
UniProt P48729: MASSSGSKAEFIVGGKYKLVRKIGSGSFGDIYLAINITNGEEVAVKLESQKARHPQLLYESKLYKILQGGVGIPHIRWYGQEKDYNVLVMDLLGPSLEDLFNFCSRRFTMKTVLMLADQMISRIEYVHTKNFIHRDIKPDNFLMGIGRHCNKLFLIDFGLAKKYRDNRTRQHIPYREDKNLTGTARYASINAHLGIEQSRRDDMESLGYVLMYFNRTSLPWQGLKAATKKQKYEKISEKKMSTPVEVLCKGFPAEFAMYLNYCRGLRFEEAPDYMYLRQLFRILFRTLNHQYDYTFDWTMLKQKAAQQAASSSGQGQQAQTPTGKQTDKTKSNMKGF
UniProt P48730: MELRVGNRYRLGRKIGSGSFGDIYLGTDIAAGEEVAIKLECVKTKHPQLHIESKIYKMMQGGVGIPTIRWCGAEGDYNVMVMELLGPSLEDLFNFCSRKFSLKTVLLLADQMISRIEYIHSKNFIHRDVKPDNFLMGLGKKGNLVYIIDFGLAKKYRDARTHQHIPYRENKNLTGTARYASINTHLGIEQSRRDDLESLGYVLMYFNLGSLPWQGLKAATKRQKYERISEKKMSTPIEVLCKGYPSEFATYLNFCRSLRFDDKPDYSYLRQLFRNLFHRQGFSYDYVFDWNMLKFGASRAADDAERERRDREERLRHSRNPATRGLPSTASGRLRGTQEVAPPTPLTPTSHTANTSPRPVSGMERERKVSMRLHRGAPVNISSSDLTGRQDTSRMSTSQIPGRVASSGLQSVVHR
UniProt Q08345: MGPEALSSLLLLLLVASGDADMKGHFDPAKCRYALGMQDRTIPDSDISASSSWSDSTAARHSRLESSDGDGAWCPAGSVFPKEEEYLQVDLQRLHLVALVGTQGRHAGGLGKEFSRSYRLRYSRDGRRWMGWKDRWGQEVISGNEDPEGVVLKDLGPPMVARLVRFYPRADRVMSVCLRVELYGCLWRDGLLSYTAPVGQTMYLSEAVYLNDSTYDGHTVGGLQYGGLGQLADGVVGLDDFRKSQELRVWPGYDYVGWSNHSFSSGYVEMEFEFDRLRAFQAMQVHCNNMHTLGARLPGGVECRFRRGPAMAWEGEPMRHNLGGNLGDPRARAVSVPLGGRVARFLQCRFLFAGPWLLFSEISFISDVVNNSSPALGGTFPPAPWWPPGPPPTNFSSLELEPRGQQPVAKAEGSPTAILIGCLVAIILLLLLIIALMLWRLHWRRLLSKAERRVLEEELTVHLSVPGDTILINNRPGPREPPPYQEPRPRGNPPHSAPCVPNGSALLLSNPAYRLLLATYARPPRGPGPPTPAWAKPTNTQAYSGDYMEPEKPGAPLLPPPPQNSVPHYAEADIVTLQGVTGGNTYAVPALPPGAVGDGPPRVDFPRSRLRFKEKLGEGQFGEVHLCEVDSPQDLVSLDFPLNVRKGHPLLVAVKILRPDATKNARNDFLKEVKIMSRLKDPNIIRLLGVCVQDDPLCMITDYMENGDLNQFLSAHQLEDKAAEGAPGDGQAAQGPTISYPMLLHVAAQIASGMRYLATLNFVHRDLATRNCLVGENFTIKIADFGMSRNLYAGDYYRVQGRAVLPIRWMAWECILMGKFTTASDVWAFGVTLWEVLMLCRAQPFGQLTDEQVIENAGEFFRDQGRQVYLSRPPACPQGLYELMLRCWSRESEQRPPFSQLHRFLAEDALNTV
UniProt Q9Y463, whole entry, looked up: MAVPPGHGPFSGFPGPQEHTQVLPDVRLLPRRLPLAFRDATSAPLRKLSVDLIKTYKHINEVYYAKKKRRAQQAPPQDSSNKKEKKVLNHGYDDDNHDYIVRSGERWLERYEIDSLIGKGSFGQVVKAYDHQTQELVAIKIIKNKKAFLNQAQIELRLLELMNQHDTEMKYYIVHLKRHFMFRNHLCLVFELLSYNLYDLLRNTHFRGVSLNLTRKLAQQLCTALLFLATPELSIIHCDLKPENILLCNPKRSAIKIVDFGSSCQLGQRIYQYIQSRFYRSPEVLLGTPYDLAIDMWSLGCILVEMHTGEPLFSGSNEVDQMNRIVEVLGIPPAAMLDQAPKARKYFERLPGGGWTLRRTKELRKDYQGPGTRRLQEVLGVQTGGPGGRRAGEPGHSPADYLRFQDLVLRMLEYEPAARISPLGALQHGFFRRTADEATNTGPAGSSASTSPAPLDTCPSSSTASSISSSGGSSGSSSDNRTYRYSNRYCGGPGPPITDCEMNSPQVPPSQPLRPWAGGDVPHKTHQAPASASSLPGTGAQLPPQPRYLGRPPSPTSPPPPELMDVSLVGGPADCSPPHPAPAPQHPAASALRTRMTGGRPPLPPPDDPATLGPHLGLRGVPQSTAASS
UniProt Q92630: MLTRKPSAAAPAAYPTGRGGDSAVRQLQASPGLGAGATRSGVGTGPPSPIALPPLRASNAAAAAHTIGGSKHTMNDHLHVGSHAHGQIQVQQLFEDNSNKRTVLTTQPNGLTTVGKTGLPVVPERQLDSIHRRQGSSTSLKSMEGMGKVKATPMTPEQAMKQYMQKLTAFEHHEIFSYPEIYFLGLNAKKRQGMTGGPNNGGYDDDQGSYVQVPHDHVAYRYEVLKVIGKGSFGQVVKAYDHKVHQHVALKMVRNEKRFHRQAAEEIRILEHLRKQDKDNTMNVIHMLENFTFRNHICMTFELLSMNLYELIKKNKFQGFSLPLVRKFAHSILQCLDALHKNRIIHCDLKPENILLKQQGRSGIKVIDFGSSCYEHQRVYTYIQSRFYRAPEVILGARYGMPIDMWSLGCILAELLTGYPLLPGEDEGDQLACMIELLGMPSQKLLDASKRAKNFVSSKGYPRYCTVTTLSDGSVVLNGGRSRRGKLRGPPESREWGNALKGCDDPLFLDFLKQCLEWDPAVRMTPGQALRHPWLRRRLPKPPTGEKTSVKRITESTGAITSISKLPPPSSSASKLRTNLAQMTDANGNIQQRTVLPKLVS

Key:
Assay in all cases: number of time points (of 5) at which kinase-Nluc abundance scored as decreased, DMSO-normalised (count); higher = more persistent destabilization
Conditions in all cases: K562; 2-18 h
CAMK2A = CAMK2A (UniProt Q9UQM7)
CAMK2G = CAMK2G (UniProt Q13555)
CDK10 = CDK10 (UniProt Q15131)
CDK2 = CDK2 (UniProt P24941)
CDK3 = CDK3 (UniProt Q00526)
CDK5 = CDK5 (UniProt Q00535)
CDK6 = CDK6 (UniProt Q00534)
CHEK2 = CHEK2 (UniProt O96017)
CSF1R = CSF1R (UniProt P07333)
CSK = CSK (UniProt P41240)
CSNK1A1 = CSNK1A1 (UniProt P48729)
CSNK1D = CSNK1D (UniProt P48730)
DDR1 = DDR1 (UniProt Q08345)
DYRK1B = DYRK1B (UniProt Q9Y463)
DYRK2 = DYRK2 (UniProt Q92630)
EGFR = EGFR (UniProt P00533)
EGFR_G719S = EGFR_G719S (UniProt P00533)
EGFR_G719S_T790M = EGFR_G719S_T790M (UniProt P00533)
EGFR_L718V = EGFR_L718V (UniProt P00533)
EGFR_L858R = EGFR_L858R (UniProt P00533)

Row | Compound | number of time points (CAMK2A) | number of time points (CAMK2G) | number of time points (CDK10) | number of time points (CDK2) | number of time points (CDK3) | number of time points (CDK5) | number of time points (CDK6) | number of time points (CHEK2) | number of time points (CSF1R) | number of time points (CSK) | number of time points (CSNK1A1) | number of time points (CSNK1D) | number of time points (DDR1) | number of time points (DYRK1B) | number of time points (DYRK2) | number of time points (EGFR) | number of time points (EGFR_G719S) | number of time points (EGFR_G719S_T790M) | number of time points (EGFR_L718V) | number of time points (EGFR_L858R)
1 | CC(C)c1ccc2oc3nc(N)c(C(=O)O)cc3c(=O)c2c1 [Amlexanox] (10 µM) | 0 | 0 | 0 | 0 | 0 | 0 | 0 | 0 | 0 | 0 | 0 | 0 | 0 | 0 | 0 | 0 | 0 | 0 | 0 | 0
2 | C[C@H](NC(=O)/C(C#N)=C/c1cccc(Br)n1)c1ccccc1 (2.5 µM) | 0 | 0 | 0 | 0 | 0 | 0 | 0 | 0 | 0 | 0 | 0 | 0 | 0 | 0 | 0 | 0 | 0 | 0 | 0 | 0
3 | Cc1cccc([C@@H](CO)NC(=O)[C@@H](C)N2Cc3ccc(-c4nc(NC5CCOCC5)ncc4Cl)cc3C2=O)c1 [ERK1/2 inhibitor 1] (10 µM) | 0 | 0 | 0 | 0 | 0 | 0 | 0 | 0 | 0 | 0 | 0 | 0 | 0 | 0 | 0 | 0 | 0 | 0 | 0 | 0
4 | COc1cc(Oc2ccnc3cc(OC)c(OC)cc23)ccc1NC(=O)NC(C)c1nccs1 (stereo not given) (2.5 µM) | 0 | 0 | 0 | 0 | 0 | 0 | 0 | 0 | 0 | 0 | 0 | 0 | 0 | 0 | 0 | 0 | 0 | 0 | 0 | 0
5 | CN(C)Cc1ccc(-c2cnn3c(-c4cccc(NC(=O)c5cccc(C(F)(F)F)c5)c4)ccnc23)cc1 (2.5 µM) | 0 | 0 | 0 | 0 | 0 | 0 | 0 | 0 | 0 | 0 | 0 | 0 | 0 | 0 | 0 | 0 | 0 | 0 | 0 | 0
6 | O=C(Nc1cc(C(F)(F)F)ccc1N1CCN(Cc2ccccn2)CC1)c1ccc(-c2ccncc2)o1 (10 µM) | 0 | 0 | 0 | 0 | 0 | 0 | 0 | 0 | 0 | 0 | 0 | 0 | 0 | 0 | 0 | 0 | 0 | 0 | 0 | 0
7 | CC(C)=CC/C=C(\C)[C@H]1CC[C@]2(C)[C@@H]1[C@H](O)C[C@@H]1[C@@]3(C)CC[C@H](O[C@@H]4O[C@H](CO)[C@@H](O)[C@H](O)[C@H]4O[C@@H]4O[C@H](CO)[C@@H](O)[C@H](O)[C@H]4O)C(C)(C)[C@@H]3CC[C@]12C [Ginsenoside Rg5] (10 µM) | 0 | 0 | 0 | 0 | 0 | 0 | 0 | 0 | 0 | 0 | 0 | 0 | 0 | 0 | 0 | 0 | 0 | 0 | 0 | 0
8 | C=CC(=O)N1CCN(CCCn2c(=O)c(-c3c(Cl)c(OC)cc(OC)c3Cl)cc3cnc(NC)nc32)CC1 (10 µM) | 0 | 0 | 0 | 0 | 0 | 0 | 0 | 0 | 0 | 0 | 0 | 0 | 0 | 0 | 0 | 0 | 0 | 0 | 0 | 0
9 | O=C(/C=C/c1ccc(O)c(O)c1)c1ccc(O)cc1O [Butein] (10 µM) | 0 | 2 | 0 | 0 | 0 | 0 | 0 | 2 | 2 | 0 | 1 | 0 | 2 | 0 | 5 | 0 | 2 | 2 | 0 | 1
10 | Cc1ccc(NC(=O)c2cccc(N(C)C)c2)cc1NC(=O)c1ccc(O)cc1 (10 µM) | 0 | 0 | 0 | 0 | 0 | 0 | 0 | 0 | 0 | 0 | 0 | 0 | 0 | 0 | 0 | 0 | 0 | 0 | 0 | 0
11 | CNC(=O)c1cc(Oc2ccc(NC(=O)Nc3cc(C(C)(C)C)nn3-c3ccc4ncccc4c3)c(F)c2)ccn1 [Rebastinib] (2.5 µM) | 0 | 3 | 2 | 0 | 0 | 0 | 0 | 3 | 4 | 0 | 3 | 2 | 3 | 1 | 4 | 2 | 2 | 2 | 1 | 3
12 | FC(F)(F)c1ccc(CNc2ccc(Cc3c[nH]c4ncc(Cl)cc34)cn2)cc1 (10 µM) | 0 | 0 | 0 | 0 | 0 | 0 | 1 | 0 | 0 | 0 | 0 | 0 | 0 | 0 | 0 | 0 | 0 | 0 | 0 | 0
13 | O=c1cc(-c2ccccc2)oc2c(O)c(O)ccc12 [7,8-Dihydroxyflavone] (10 µM) | 0 | 0 | 0 | 0 | 0 | 0 | 0 | 0 | 0 | 0 | 0 | 0 | 0 | 0 | 0 | 0 | 0 | 0 | 0 | 0
14 | Cc1cc(CS(=O)(=O)c2ccccc2)cc(OCc2ccc(CN3CCC[C@@H]3CO)cc2)c1 [PF-543 (Citrate)] (10 µM) | 0 | 0 | 0 | 0 | 0 | 0 | 0 | 0 | 0 | 0 | 0 | 0 | 0 | 0 | 0 | 0 | 0 | 0 | 0 | 0
15 | CN1CCN(C(=O)c2ccc(-c3ccc4c(C=O)c(O)ccc4c3)s2)CC1 (2.5 µM) | 0 | 0 | 0 | 0 | 0 | 0 | 0 | 0 | 0 | 0 | 0 | 0 | 0 | 0 | 0 | 0 | 0 | 0 | 0 | 0
16 | CN1CCN(c2ccc(Nc3cc(-c4cccc(-n5ccc6cc(C7CC7)cc(F)c6c5=O)c4CO)cn(C)c3=O)nc2)CC1 (2.5 µM) | 0 | 0 | 0 | 0 | 0 | 0 | 2 | 0 | 0 | 0 | 0 | 0 | 0 | 0 | 0 | 0 | 0 | 0 | 0 | 0
17 | CN(C)C[C@@H]1CCn2cc(c3ccccc32)C2=C(C(=O)NC2=O)c2cn(c3ccccc23)CCO1 [Ruboxistaurin (hydrochloride)] (10 µM) | 0 | 0 | 0 | 0 | 0 | 0 | 0 | 0 | 0 | 0 | 0 | 0 | 0 | 0 | 0 | 0 | 0 | 0 | 0 | 0
18 | Cc1cc(F)c(C(=O)Nc2cccc(-c3nncn3C(C)C)n2)cc1-n1cnc(C2CC2)c1 [Selonsertib] (10 µM) | 0 | 0 | 0 | 0 | 0 | 0 | 0 | 0 | 0 | 0 | 0 | 0 | 0 | 0 | 0 | 0 | 0 | 0 | 0 | 0
19 | CCn1c(=O)c2cc(C(N)=O)c(N)nc2n(C2CC2)c1=O (10 µM) | 0 | 0 | 0 | 0 | 0 | 0 | 0 | 0 | 0 | 0 | 0 | 0 | 0 | 0 | 0 | 0 | 0 | 0 | 0 | 0
20 | CCCCOc1c(C(=O)c2c(F)cc(C)cc2F)c[nH]c2nncc1-2 (10 µM) | 0 | 0 | 0 | 0 | 0 | 0 | 0 | 0 | 0 | 0 | 0 | 0 | 0 | 0 | 0 | 0 | 0 | 0 | 0 | 0
21 | CCOc1cc2ncc(-c3cc(N)nc(F)c3)n2cc1S(=O)(=O)C(C)(C)C (10 µM) | 0 | 0 | 0 | 0 | 0 | 0 | 0 | 0 | 0 | 0 | 0 | 0 | 0 | 0 | 0 | 0 | 0 | 0 | 0 | 0
22 | Cc1c(NC(=O)c2cc3c(s2)CCCC3)cccc1-c1cn(C)c(=O)c(Nc2ccc([C@@H]3C(=O)N(C)CCN3C)cc2)n1 (10 µM) | 0 | 0 | 0 | 0 | 0 | 0 | 0 | 0 | 0 | 0 | 0 | 0 | 0 | 0 | 0 | 0 | 0 | 0 | 0 | 0
23 | O=C(c1ccc(-c2ccc(Cl)cc2)o1)N(Cc1ccccn1)c1ccc(N2CCNCC2)cc1 [MK2-IN-1 (hydrochloride)] (10 µM) | 0 | 0 | 5 | 0 | 0 | 0 | 0 | 1 | 0 | 0 | 0 | 0 | 1 | 0 | 1 | 0 | 0 | 0 | 0 | 0

Part of the list above in order of molecular weight, rising:
Row | Compound | number of time points (CAMK2A) | number of time points (CAMK2G) | number of time points (CDK10) | number of time points (CDK2) | number of time points (CDK3) | number of time points (CDK5) | number of time points (CDK6) | number of time points (CHEK2) | number of time points (CSF1R) | number of time points (CSK) | number of time points (CSNK1A1) | number of time points (CSNK1D) | number of time points (DDR1) | number of time points (DYRK1B) | number of time points (DYRK2) | number of time points (EGFR) | number of time points (EGFR_G719S) | number of time points (EGFR_G719S_T790M) | number of time points (EGFR_L718V) | number of time points (EGFR_L858R)
20 | CCCCOc1c(C(=O)c2c(F)cc(C)cc2F)c[nH]c2nncc1-2 (10 µM) | 0 | 0 | 0 | 0 | 0 | 0 | 0 | 0 | 0 | 0 | 0 | 0 | 0 | 0 | 0 | 0 | 0 | 0 | 0 | 0
15 | CN1CCN(C(=O)c2ccc(-c3ccc4c(C=O)c(O)ccc4c3)s2)CC1 (2.5 µM) | 0 | 0 | 0 | 0 | 0 | 0 | 0 | 0 | 0 | 0 | 0 | 0 | 0 | 0 | 0 | 0 | 0 | 0 | 0 | 0
10 | Cc1ccc(NC(=O)c2cccc(N(C)C)c2)cc1NC(=O)c1ccc(O)cc1 (10 µM) | 0 | 0 | 0 | 0 | 0 | 0 | 0 | 0 | 0 | 0 | 0 | 0 | 0 | 0 | 0 | 0 | 0 | 0 | 0 | 0
